The whole screen tested about 390,000 compounds, of which about 910 (0.23%) were called active. The inconclusive results got no clear call from the source; some entries with a clear call stand among them for comparison. Calls come from the whole dose curve; as a rule, active = well fitted inhibition curve with a large enough effect; inconclusive = small, poorly fitted or top-dose-only effect; inactive = no such curve, though single readings can be large or run the other way. Where the call is inconclusive, the potency comes from a doubtful curve fit.
What follows are compounds tested against Ubiquitin carboxyl-terminal hydrolase 1 (Homo sapiens) (UniProt O94782) (assay: Inhibitors of USP1/UAF1: Primary Screen). Settings: recombinant USP1/UAF1, Ub-Rhodamine cleavage fluorescence; series mostly up to 57.1 µM.
Outline: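 USP1/UAF1 complex at 1 nM was preincubated with compound for 15 min at room temperature, then Ub-Rho substrate (150nM final) was added. Fluorescence (480/540 nm) was read kinetically, 6 reads every 60 seconds.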
Note: nearly all actives have a fitted effect of over 60% in size.
Potency is the fitted concentration of half-maximal effect.

Sequences of proteins named here, by UniProt entry; tags and fusion partners are left off. A change or cut given only in a name is not applied to a line headed by its entry.
UniProt O94782: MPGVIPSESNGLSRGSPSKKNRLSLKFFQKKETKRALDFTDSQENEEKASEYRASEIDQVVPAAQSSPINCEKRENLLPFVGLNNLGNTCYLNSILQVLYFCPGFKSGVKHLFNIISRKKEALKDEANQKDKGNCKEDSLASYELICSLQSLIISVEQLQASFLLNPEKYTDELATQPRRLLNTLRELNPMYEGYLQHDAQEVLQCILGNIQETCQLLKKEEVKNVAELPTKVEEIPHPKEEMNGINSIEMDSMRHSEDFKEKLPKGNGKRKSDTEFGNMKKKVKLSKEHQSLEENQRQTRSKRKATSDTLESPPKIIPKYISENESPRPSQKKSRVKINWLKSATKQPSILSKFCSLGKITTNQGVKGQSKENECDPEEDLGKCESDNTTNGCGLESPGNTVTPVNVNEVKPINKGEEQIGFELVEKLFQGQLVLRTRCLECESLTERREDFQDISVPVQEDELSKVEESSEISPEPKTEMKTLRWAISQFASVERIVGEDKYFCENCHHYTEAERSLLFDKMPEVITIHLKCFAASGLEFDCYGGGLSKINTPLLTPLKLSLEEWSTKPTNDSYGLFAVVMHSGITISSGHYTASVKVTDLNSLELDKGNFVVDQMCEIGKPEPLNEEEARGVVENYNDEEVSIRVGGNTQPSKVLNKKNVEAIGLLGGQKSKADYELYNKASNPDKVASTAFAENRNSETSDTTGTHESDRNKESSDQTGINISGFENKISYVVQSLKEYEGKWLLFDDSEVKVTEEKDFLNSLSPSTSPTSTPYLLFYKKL

Potency, active:
N=C1/C(=C\c2coc3ccc(O)cc3c2=O)C(=O)N=C2SC=CN12 28.2 µM
O=C1CCn2c1c(O)c1ccccc1c2=O 5.01 µM

Potency, inconclusive:
Nc1cc(S(=O)(=O)O)cc2ccc(S(=O)(=O)O)cc12 11.2 µM [inhibitor, single point]
O=S(=O)(c1ccccc1)N(CC(O)COc1ccccc1)c1ccccc1 (centres undefined) 0.398 µM [inhibitor, partial curve, poor fit]
COC(=O)CNC(c1ccccc1)c1cc(C)ccc1NS(=O)(=O)c1ccc(C)cc1 (centres undefined) 5.62 µM [inhibitor, single point]
CCN(CC)c1ccc2cc(C(N)=O)/c(=N\NC(=O)c3ccncc3)oc2c1 28.2 µM [inhibitor, single point]
N#CCSc1nc2ccccc2c(=O)n1CCCC(=O)NCc1ccco1 35.5 µM [inhibitor, single point]
Nc1ncc(-n2cncn2)c(-c2ccccc2)n1 15.8 µM [inhibitor, partial curve]
Cc1ccc(NC(=O)c2sc3nc4c(cc3c2N)CN(Cc2ccccc2)CC4)cc1 2.24 µM [inhibitor, full curve, poor fit]
O=C1CCCN1CCNC(=S)Nc1ccccc1 0.562 µM [inhibitor, full curve, poor fit]
CC(=O)Nc1ccc(NC(=O)c2cc(-c3cc(C)c(C)cc3O)n[nH]2)cc1 0.708 µM [inhibitor, full curve]
Cc1nnc(N2CCCC(C(=O)NCCc3ccc(Cl)cc3)C2)c2nn(-c3ccccc3)c(C)c12 (centres undefined) 50.1 µM [inhibitor, partial curve, poor fit]
COc1cc2c(c(OC)c1)C(c1cccc(OC)c1OC)CC(=O)N2 (centres undefined) 3.16 µM [inhibitor, full curve]
O=C(/C=C/c1ccc2c(c1)OCO2)c1ccccn1 44.7 µM [inhibitor, partial curve]
Cc1cccc(N2CCN(C(=O)CCn3c(=O)c4cccn4c4cccnc43)CC2C)c1 (centres undefined) 44.7 µM [inhibitor, partial curve, poor fit]
O=c1oc2ccccc2cc1-c1cn2cc(Cc3ccc(Cl)cc3)sc2n1 0.0251 µM [inhibitor, full curve, poor fit]
CCOC(=O)c1c(C)[nH]c(CCC(=O)NCc2ccc(N(C)C)cc2)c1C 5.62 µM [inhibitor, single point]
C[C@@H]1CN([C@@H](C)CO)C(=O)CCCn2cc(nn2)CO[C@H]1CN(C)C(=O)c1ccc2ccn(C)c2c1 0.141 µM [inhibitor, full curve, poor fit]
CC1=C(C(=O)Nc2ccc(C)cc2C)C(c2cccs2)n2nc(SCc3ccccc3Cl)nc2N1 (centres undefined) 0.251 µM [inhibitor, full curve, poor fit]
Cc1ccc(N2CCN(C(=O)c3cccc([N+](=O)[O-])c3)CC2)cc1Cl 7.08 µM [inhibitor, partial curve, poor fit]
O=c1c2ccc(F)cc2sn1-c1ccccc1 35.5 µM [inhibitor, partial curve, poor fit]
CCc1nc(Oc2cccc(F)c2)c2oc3ccccc3c2n1 39.8 µM [inhibitor, partial curve, poor fit]
C=CCn1cccc(C(=O)Nc2cc(OC)cc(OC)c2)c1=O 14.1 µM [inhibitor, partial curve, poor fit]
O=C(c1cccs1)c1sccc1Cc1ccccc1 31.6 µM [inhibitor, partial curve, poor fit]
O=C(CN1C(=O)NC2(CCOc3ccccc32)C1=O)c1cccs1 (centres undefined) 35.5 µM [inhibitor, single point]
O=C(NCCc1ccccc1Cl)c1ccc2c(c1)nc1n2CCCCC1 50.1 µM [inhibitor, partial curve, poor fit]
O=C(Cc1ccc(Br)cc1)NC1CCCc2ccccc21 (centres undefined) 7.08 µM [inhibitor, single point]
COc1cc(/C=C/c2[nH]c(=O)[nH]c(=O)c2[N+](=O)[O-])ccc1OCCC(C)C 31.6 µM [inhibitor, partial curve, poor fit]
CCOc1ccccc1NC(=O)c1cnn2c(C(F)F)cc(-c3ccccc3)nc12 0.282 µM [inhibitor, full curve, poor fit]
COc1ccc(O)c(C(=O)c2cnn(-c3ccccc3)c2)c1 25.1 µM [inhibitor, partial curve]
COc1cc2c(=O)n(CCC(=O)NCC3CCCO3)c(=O)n(CC(=O)Nc3ccc(C)c(C)c3)c2cc1OC (centres undefined) 44.7 µM [inhibitor, partial curve, poor fit]
Nn1cnnc1N/N=C\c1ccc(-c2ccccc2[N+](=O)[O-])o1 35.5 µM [inhibitor, single point]
CCCCCCCCCCOC(=O)Cn1c(COc2ccc(Cl)cc2)[n+](C)c2ccccc21 44.7 µM [inhibitor, partial curve]
CCOC(=O)c1sc2nc(N3CCOCC3)c3c(c2c1N)CCC3 50.1 µM [inhibitor, partial curve, poor fit]
COc1ccc(NC(=O)N(C)C[C@H]2Oc3ccc(NS(=O)(=O)c4ccc(OC)cc4)cc3C(=O)N([C@H](C)CO)C[C@@H]2C)cc1 50.1 µM [inhibitor, single point]
Cc1ccc(C)c(Nc2ncccc2C(=O)NCc2cccs2)c1 25.1 µM [inhibitor, partial curve]
C=CC[C@@H](Cc1ccc(F)cc1)C(=O)OC[C@H]1CCCN1C(=O)[C@H](CC=C)CC(=O)NCCO 5.62 µM [inhibitor, partial curve]
COc1ccc(CC(=O)N2CCN=C2SC)cc1 7.08 µM [inhibitor, partial curve]
O=C1c2ccccc2C(=O)N1CCc1c(-c2ccccc2)[nH]c2ccccc12 3.16 µM [inhibitor, full curve, poor fit]
O=C(CSc1nnc(NC(=O)Nc2ccccc2)s1)Nc1cccc(F)c1 25.1 µM [inhibitor, single point]
COc1ccc(-n2nnnc2S(=O)(=O)CC(=O)N2CCCCC2)cc1 31.6 µM [inhibitor, partial curve]
C=CCn1c2ccccc2c2nnc(SCC(=O)O)nc21 28.2 µM [inhibitor, partial curve]
Cc1cc(NC(=O)CC(C)C)c(=O)n(Cc2cccc(F)c2)c1 39.8 µM [inhibitor, partial curve]
Cc1ccccc1NC(=O)CN1C(=O)N/C(=C\c2ccccc2OCc2ccc(C(=O)O)cc2)C1=O 35.5 µM [inhibitor, single point]
Cc1nn(C)c(C)c1S(=O)(=O)N1CCC(C(=O)NC2CCCc3ccccc32)CC1 (centres undefined) 0.708 µM [inhibitor, full curve, poor fit]
CCc1cccc2sc(N(CCCN3CCOCC3)C(=O)CS(=O)(=O)c3ccccc3)nc12 44.7 µM [inhibitor, partial curve]
CCOC(=O)N1CCc2c(sc(NCc3cc(OC)c(OC)cc3OC)c2C(=O)Nc2ccc(OCC)cc2)C1 22.4 µM [inhibitor, partial curve]
CS(=O)(=O)N(Cc1ccco1)CC(O)Cn1c2ccccc2c2ccccc21 (centres undefined) 44.7 µM [inhibitor, partial curve, poor fit]
COc1ccc(O)c(C(=O)c2cnc3c(c2)c(C)nn3CCO)c1 6.31 µM [inhibitor, single point]

4 entries already listed, sorted by SMILES length, descending.
Potency, inconclusive:
C[C@@H]1CN([C@@H](C)CO)C(=O)CCCn2cc(nn2)CO[C@H]1CN(C)C(=O)c1ccc2ccn(C)c2c1 0.141 µM [inhibitor, full curve, poor fit]
CCOC(=O)c1sc2nc(N3CCOCC3)c3c(c2c1N)CCC3 50.1 µM [inhibitor, partial curve, poor fit]
COc1ccc(O)c(C(=O)c2cnn(-c3ccccc3)c2)c1 25.1 µM [inhibitor, partial curve]
Nc1ncc(-n2cncn2)c(-c2ccccc2)n1 15.8 µM [inhibitor, partial curve]

Next part:

Potency, inactive:
O=C(CN(Cc1ccco1)C(=O)CNS(=O)(=O)c1ccc(Cl)cc1)NCc1ccco1
COc1ccccc1OCCOc1ccc(/C=C2/C(=N)N3OC(C)=CC3=NC2=O)cc1OC
CC(C)c1ccc(OC(=O)c2cc(-c3ccccc3)on2)cc1
O=C1C(Br)=Cc2cccc3cccc1c23
CCCCCCCc1nc2nc(C)c(Br)c(=O)n2[nH]1
Clc1ccc(-n2nnnc2Sc2ncnc3sccc23)cc1
CS(=O)(=O)N(CC(=O)NCc1ccc2c(c1)OCO2)Cc1ccccc1
COC(=O)c1sc(NC(=O)c2cc(-c3ccccc3)nc3ccccc23)c(C#N)c1C
CC(=O)c1cc(C)ccc1OC(=O)CN1C(=O)c2ccccc2C1=O
CC(=O)Nc1ccc(S(=O)(=O)Nc2nc3ccccc3nc2Nc2ccc(S(N)(=O)=O)cc2)cc1
COc1ccc(Cc2nnc(N)s2)cc1OC
O=C(NCCc1ccccc1)c1nnc(CS(=O)(=O)c2ccccc2)o1
Cc1ccc(-c2nnc(-n3nc(C)cc3C)c3ccccc23)cc1
COc1ccc([N+](=O)[O-])cc1/C=N/NC(=O)/C(=C\c1cccs1)NC(=O)c1ccccc1
OCCN(CCO)c1ccc2ccccc2c1

Source: PubChem BioAssay AID743255 (National Center for Advancing Translational Sciences (NCATS), 2014)
